# Values quoted from earlier work, collected in article PMC6052858 (Die Pharmazie, 2009).
# Conditions: intraduodenal, GFJ administered concomitantly; ref Mohri et al. 2000; cited from earlier work
compound,measurement,value
COC(=O)C1=C(C)NC(C)=C(C(=O)OC)C1c1ccccc1[N+](=O)[O-] [nifedipine],decrease in Tmax,50%
